From patent US10961180B2, “Branched trialkyl amine oxides” (Eastman Chemical Company, priority 2018, dated 2021)

Columns and labels:
[1] = Stain removal in cold water, swatch brightness, simple laundry liquid; conditions: 12% LAE7 base formulation diluted to 0.06% surfactant; additives 0.05% active in wash solution; 20° C; 3 replicates
[2] = as above; conditions: 12% LAE7 base formulation diluted to 0.06% surfactant; additives 0.05% active in wash solution; 20° C; 3 replicates; remark: listed apart in the source
[3] = Standard Pre-Treater formula on lipstick stain; conditions: 6% surfactant in Standard PT formula, 0.2 ml, 5 min, then cold wash (20 C) in diluted Tide

| Compound | Stain removal estimated by brightness, avg L* [1] | Stain removal estimated by brightness, avg L* [2] | L* [3] | deltaE [3] |
| --- | --- | --- | --- | --- |
| CCCCC(CC)CC(C)C[N+](C)(C)[O-] (centres unmarked) [Example 43, 4-ethyl-N,N-2-trimethyloctan-1-amine oxide] | 76.3 | 72.7 | – | – |
| CCCCCCCCCCCC[N+](C)(C)[O-] [LAO, N,N-dimethyl laurylamine oxide, reference compound] | 74.8 | 72.8 | – | – |
| Alkylpolyglucoside [APG] | – | – | 78.0 | 18.9 |
| Linear alkylbenzene sulfonate [LABS] | – | – | 78.4 | 19.4 |
